Source: PubChem BioAssay AID504444 (National Center for Advancing Translational Sciences (NCATS), 2011)
In all, about 360,000 compounds went through this assay and about 7,500 (2.1%) were called active. This list was built around the results that the source calls inconclusive (neither active nor inactive); the mix of calls is not that of the screen. The call rests on the fitted dose curve; in most records, active means well fitted inhibition curve with a large enough effect; inconclusive means small, poorly fitted or top-dose-only effect, or effect the other way; inactive means flat fitted curve, though single readings scatter. A potency beside an inconclusive call is a rough fit, not a confirmed value.

Assay: Nrf2 qHTS screen for inhibitors; further: nearly all actives have a fitted effect of over 60% in size
Details: A549 ARE-Fluc reporter, luciferase luminescence, 18-24 h; activity change, negative = inhibition: at 46 µM (top of the series)
Summary of the method: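 Quantitative HTS in A549 cells stably bearing an antioxidant response element-firefly luciferase construct. Inhibition of Nrf2-driven transcription was scored by luminescence after 18-24 h of compound exposure at 37 °C.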
On the % scale 0 is the no-effect control and ±100 the full control effect; potency means the concentration at half of the fitted maximal effect.

Compound | Potency | activity change, negative = inhibition
O=C(c1ccc(Br)cc1)N1CCC(C(=O)N2CCN(c3ccccc3)CC2)CC1 | inconclusive: 25.9 µM [falling, partial curve, poor fit] | 
CC(=O)NCCc1ccc(-c2csc(NC(=O)C3CC(=O)N(C4CCCC4)C3)n2)cc1 (configuration not stated) | inconclusive: 20.6 µM [falling, partial curve, poor fit] | 
O=[N+]([O-])c1ccc(N2CCN(Cc3ccccc3)CC2)nc1 | inconclusive: 16.4 µM [falling, partial curve] | 
CC(=O)N/C(=C/c1ccc([N+](=O)[O-])cc1)C(=O)O | inconclusive: 0.058 µM [falling, partial curve, poor fit] | 
O=C(/C=C/c1ccccc1)Nc1ccc(N2CCCCC2)cc1 | inconclusive: 3.66 µM [activator, full curve, poor fit] | 
Cn1c(SCc2ccccc2[N+](=O)[O-])nnc1-c1cccnc1 | inconclusive: 20.6 µM [activator, single point] | 
c1c2c(cc3sc(N4CCOCC4)nc13)OCCO2 | inconclusive: 7.31 µM [falling, partial curve, poor fit] | 
CN(C(=O)CSc1nc2ccc(NC(=O)c3ccccc3)cc2s1)c1ccccc1 | inconclusive: 18.4 µM [falling, single point] | 
COC(=O)c1cccc(Nc2ncnc3ccc(C)cc23)c1 | inconclusive: 5.17 µM [falling, partial curve, poor fit] | 
O=C(CSc1oc(-c2cccs2)nc1S(=O)(=O)c1ccccc1)Nc1ccc(F)cc1 |  | inactive: -5.39% [at 9.27 µM]
O=S(=O)(Nc1nc2ccccc2nc1N1CCc2ccccc2C1)c1ccc(Br)cc1 | inconclusive: 18.4 µM [falling, single point] | 
CCOC(=O)c1[nH]c2ccc(F)cc2c1NC(=O)C(C)N1CCc2cc(OC)c(OC)cc2C1 (configuration not stated) | inconclusive: 29.1 µM [falling, single point] | 
O=[N+]([O-])c1ccc(NC(=S)NCc2ccncc2)cc1 | inconclusive: 29.1 µM [falling, single point] | 
Nc1nc(C(c2ccccc2)c2ccccc2)cs1 | inconclusive: 18.4 µM [falling, single point] | 
COc1ccc(Cn2c(NCC(C)C)nc3c2c(=O)n(C)c(=O)n3C)cc1 | inconclusive: 32.6 µM [falling, partial curve, poor fit] | 
Oc1ccc(/C=C/c2nc(-c3ccccc3O)n(-c3ccccc3)n2)cc1 | active: 7.31 µM | 
O=C(Cc1ccc(Cl)cc1)Nc1cccc(S(=O)(=O)Nc2ccccc2F)c1 | inconclusive: 29.1 µM [falling, single point] | 
COc1ccc(N2CCN(CCNC(=O)Nc3cccc(C)c3C)CC2)cc1 | inconclusive: 16.4 µM [activator, partial curve, poor fit] | 
CCC1CCCCN1S(=O)(=O)c1ccc(NC(=O)c2snnc2C)cc1 (configuration not stated) | inconclusive: 10.3 µM [falling, partial curve, poor fit] | 
Cc1ccc(S(=O)(=O)N(C)c2ccc(OCC(=O)Nc3nc4ccccc4s3)cc2)cc1 | active: 20.6 µM | 
O=C(CCc1nnc(CCc2ccccc2)o1)NC(c1cccnc1)C(F)(F)F (configuration not stated) | inconclusive: 3.66 µM [activator, full curve] | 

Compound | Potency | activity change, negative = inhibition
COc1ccc(-n2nc(C(=O)N3CCN(c4cccc(C)c4)C(C)C3)c3c4ccccc4n(C)c3c2=O)cc1Cl (configuration not stated) | inactive | 
COC(C(=O)Nc1ccc(C(C)=O)cc1)c1ccccc1 (configuration not stated) | inconclusive: 16.4 µM [activator, partial curve, poor fit] | 
OCC[C@@H]1C[C@H](O)[C@@H](O)[C@@]2(CCCc3ccccc3O2)O1 | inactive | 
CCc1ccc(C(=O)COC(=O)CNC(=O)CNC(=O)Cc2ccccc2)cc1 | inconclusive: 0.206 µM [falling, full curve, poor fit] | 
NS(=O)(=O)c1ccc(CCNC(=O)CCc2ccccc2)cc1 | inconclusive: 4.11 µM [falling, single point] | 
COc1ccc(S(=O)(=O)N2CCCCCC2)cc1N(C)S(=O)(=O)c1ccc(Cl)cc1 | inconclusive: 18.4 µM [falling, single point] | 
CCOc1ccc(Br)cc1S(=O)(=O)Nc1ccc(C(=O)OC(C)C(=O)N(C)c2ccccc2)cc1 (configuration not stated) | inconclusive: 23.1 µM [falling, single point] | 
NC(=O)C1CCN(C2=C(NS(=O)(=O)c3ccccc3)C(=O)c3ccccc3C2=O)CC1 | inconclusive: 16.4 µM [falling, partial curve, poor fit] | 
O=S(=O)(c1ccc2nc(Nc3ccc(Br)cc3F)ccc2c1)N1CCCC1 | inconclusive: 0.58 µM [falling, full curve, poor fit] | 
c1ccc2[nH]c(CCCCc3nc4ccccc4[nH]3)nc2c1 | inconclusive: 16.4 µM [falling, partial curve, poor fit] | 
Nc1ccc2oc(-c3ccccc3Cl)nc2c1 | inconclusive: 9.2 µM [activator, partial curve] | 
CC(=O)Nc1ccc(S(=O)(=O)NC2=C(N3CCN(c4ccc(F)cc4)CC3)C(=O)c3ccccc3C2=O)cc1 | inconclusive: 18.4 µM [falling, single point] | 
CC(C)c1ccc(C2NC(=O)CCC2[N+](=O)[O-])cc1 (configuration not stated) | inconclusive: 2.91 µM [falling, single point] | 
O=C(CN1C(=O)c2ccccc2S1(=O)=O)c1ccc2c(c1)OCCCO2 | active: 0.184 µM | 
COc1ccc(C(=O)CC2(O)C(=O)N(CCc3ccccc3)c3ccc(Br)cc32)cc1OC (configuration not stated) | active: 23.1 µM | 
COC(=O)N1CCc2c(sc(NC(=O)C3=COCCO3)c2C#N)C1 | inactive | 
NC(c1ccccc1)c1ccncc1 (configuration not stated) | inactive | 
Cn1nc(C(=O)Nc2ccc(S(=O)(=O)N3CCCCC3)cc2)ccc1=O | inconclusive: 10.3 µM [falling, partial curve] | 
COc1ccc(-c2coc3cc(OC)cc(O)c3c2=O)cc1 | inconclusive: 23.1 µM [activator, partial curve] | 
COc1ccc(NC(=S)NCCSc2ccc(Cl)cc2)c(OC)c1 | inconclusive: 29.1 µM [falling, single point] | 
Cc1ccc2c(COC(=O)c3ccccc3Cl)cc(=O)oc2c1 | inconclusive: 29.1 µM [activator, single point] | 

Gathered by group, the compounds so far containing a thiophene ring, fused or not
Compound | Potency | activity change, negative = inhibition
O=C(CSc1oc(-c2cccs2)nc1S(=O)(=O)c1ccccc1)Nc1ccc(F)cc1 |  | inactive: -5.39% [at 9.27 µM]
COC(=O)N1CCc2c(sc(NC(=O)C3=COCCO3)c2C#N)C1 | inactive | 

The listing continues:

Compound | Potency | activity change, negative = inhibition
COc1ccc(CNC(=O)C(c2ccc(C)o2)N(C(=O)c2csnn2)c2ccc(C(C)C)cc2)cc1 (configuration not stated) | inconclusive: 29.1 µM [falling, single point] | 
COc1ccc(S(=O)(=O)N2CCC(c3nnnn3-c3ccccc3)CC2)cc1OC | inconclusive: 20.6 µM [falling, single point] | 
Cc1[nH]nc(SCC(=O)N2CCCCC2)c1[N+](=O)[O-] | inconclusive: 9.2 µM [activator, partial curve] | 
Cc1ccc(Cl)cc1N1CCN(C(=O)c2cnc3c(-c4ccc(F)cc4)c(C)nn3c2C)CC1 | inconclusive: 18.4 µM [activator, partial curve, poor fit] | 
O=C(Nc1ccccc1C(F)(F)F)C1CCN(c2nnc(-n3cccc3)s2)CC1 | inconclusive: 5.8 µM [activator, full curve] | 
O=C(c1cc(-c2ccc(O)cc2)on1)N1CCOCC1 | inconclusive: 0.731 µM [activator, partial curve, poor fit] | 
O=C(Cn1cc(SCc2ccc(F)cc2)c2ccccc21)N1CCCC1 | inconclusive: 29.1 µM [activator, single point] | 
CC(=O)Nc1ccc(/C=C/C(=O)c2ccc(-n3nncc3-c3ccccc3)cc2)cc1 | inconclusive: 32.6 µM [falling, partial curve, poor fit] | 
COc1ccc(C2=CC(c3ccco3)n3ncnc3N2)cc1 (configuration not stated) | inactive | 
CCN(CC)S(=O)(=O)c1ccc2c(c1)c(=O)c(C(=O)N1CCN(c3cc(C)ccc3C)CC1)cn2C | inactive | 
O=C1CCC(C(=O)O)N1 (configuration not stated) | inconclusive: 25.9 µM [falling, partial curve, poor fit] | 
COc1ccc(S(=O)(=O)N2CCOCC2)cc1NC(=O)COc1ccc(C)cc1 | inconclusive: 18.4 µM [falling, single point] | 
Cc1nn(-c2ccc(Cl)nn2)c(=O)c2ccccc12 | inconclusive: 11.6 µM [activator, partial curve, poor fit] | 
CC(=O)N(C)c1ccc(NC(=O)Cc2cccs2)cc1 | inconclusive: 29.1 µM [activator, single point] | 
O=C(NCCC1=CCCCC1)C1CCC(CNc2nc(=S)[nH]c3ccccc23)CC1 (configuration not stated) | inconclusive: 16.4 µM [falling, partial curve, poor fit] | 
CCCN(CC(=O)Nc1ccccc1OC)C(=O)c1ccc2c(c1)NC(=O)C(C)S2 (configuration not stated) | inconclusive: 20.6 µM [falling, partial curve, poor fit] | 
CNS(=O)(=O)c1cccc(C(=O)OCc2cc(C(C)=O)ccc2OC)c1 | inconclusive: 29.1 µM [falling, partial curve, poor fit] | 
CCOC(=O)N1CCN(Cc2cc(=O)oc3ccc4ccccc4c23)CC1 | inconclusive: 32.6 µM [falling, single point] | 
Cc1ccc(-c2cnc(SCC(=O)N3CCCc4ccccc43)n2C)cc1 | inconclusive: 32.6 µM [falling, single point] | 
CC(C)(C)C(=O)Nc1ccccc1C(=O)Nc1ccccn1 | inconclusive: 29.1 µM [activator, single point] | 
